Test results reported in publication PMC4196162.
Results are given in words; binding and its absence hold for the method and conditions named. Binding seen in cells or lysates may run through a third protein. Binding can be weak; no strength is given. Each block holds one molecule with its values, some of them ahead of it.

Experiments:
[1] = target: T1, BCL9-2 in primary K19-BCL9-2 mouse mammary tumor cells (mouse (endogenous in primary K19-BCL9-2 mouse tumor cells)) (UniProt Q67FY2); assay: co-IP; primary K19-BCL9-2 mouse mammary tumor cells, whole cell lysates, Protein A sepharose; Western blot
T1 sequence: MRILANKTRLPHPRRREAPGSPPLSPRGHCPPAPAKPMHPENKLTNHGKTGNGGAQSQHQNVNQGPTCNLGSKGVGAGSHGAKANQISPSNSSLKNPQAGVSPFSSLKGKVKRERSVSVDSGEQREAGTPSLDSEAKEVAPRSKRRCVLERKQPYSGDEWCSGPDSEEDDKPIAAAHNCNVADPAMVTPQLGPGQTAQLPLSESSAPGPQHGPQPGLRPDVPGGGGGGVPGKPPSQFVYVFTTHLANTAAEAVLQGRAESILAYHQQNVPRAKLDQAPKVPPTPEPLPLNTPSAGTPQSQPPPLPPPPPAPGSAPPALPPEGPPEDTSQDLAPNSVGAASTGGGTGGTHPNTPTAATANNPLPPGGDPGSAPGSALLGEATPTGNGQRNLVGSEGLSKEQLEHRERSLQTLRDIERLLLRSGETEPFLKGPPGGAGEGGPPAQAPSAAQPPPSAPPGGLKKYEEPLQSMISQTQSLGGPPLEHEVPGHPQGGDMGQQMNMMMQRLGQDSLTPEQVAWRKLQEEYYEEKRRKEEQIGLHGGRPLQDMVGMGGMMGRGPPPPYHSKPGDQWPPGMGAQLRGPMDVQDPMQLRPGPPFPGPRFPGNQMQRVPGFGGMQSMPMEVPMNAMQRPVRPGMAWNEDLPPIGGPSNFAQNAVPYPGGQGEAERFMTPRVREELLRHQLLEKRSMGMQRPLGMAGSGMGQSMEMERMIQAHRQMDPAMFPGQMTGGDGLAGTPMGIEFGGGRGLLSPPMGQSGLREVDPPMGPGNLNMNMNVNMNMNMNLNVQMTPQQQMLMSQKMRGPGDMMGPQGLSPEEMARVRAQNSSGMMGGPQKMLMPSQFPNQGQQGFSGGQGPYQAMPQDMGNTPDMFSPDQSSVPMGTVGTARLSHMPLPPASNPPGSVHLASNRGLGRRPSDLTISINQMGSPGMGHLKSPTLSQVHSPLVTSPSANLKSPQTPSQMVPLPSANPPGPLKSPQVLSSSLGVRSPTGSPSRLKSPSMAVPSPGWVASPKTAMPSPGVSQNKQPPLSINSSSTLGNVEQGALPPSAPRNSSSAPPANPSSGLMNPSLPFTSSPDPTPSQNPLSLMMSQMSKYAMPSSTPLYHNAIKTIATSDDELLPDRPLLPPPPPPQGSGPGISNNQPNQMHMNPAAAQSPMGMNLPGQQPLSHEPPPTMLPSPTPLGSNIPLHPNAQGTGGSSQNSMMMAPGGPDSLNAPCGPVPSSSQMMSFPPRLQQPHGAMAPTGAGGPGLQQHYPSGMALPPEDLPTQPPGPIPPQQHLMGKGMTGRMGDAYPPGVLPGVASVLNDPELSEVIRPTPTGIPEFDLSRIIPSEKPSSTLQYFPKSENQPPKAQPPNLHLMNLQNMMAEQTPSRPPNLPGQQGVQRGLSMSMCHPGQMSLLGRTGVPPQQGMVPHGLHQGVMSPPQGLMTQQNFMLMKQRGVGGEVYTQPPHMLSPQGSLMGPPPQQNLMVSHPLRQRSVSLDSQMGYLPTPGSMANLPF

[2] = target: Pygo2 (mouse) (mouse (endogenous in primary K19-BCL9-2 mouse tumor cells)); assay: as above

- binding [1]: binds
Molecule: Pygo2 (mouse)

- binding [2]: binds
B1: BCL9-2 in primary K19-BCL9-2 mouse mammary tumor cells (protein, UniProt Q67FY2 1-1494)
chain: T1 sequence
